The data set has as its system hRBCs versus E. coli (ATCC 25922). The format is cell-based. Particulars: HC50 hRBCs / MIC E. coli (ATCC 25922); for fold higher therapeutic index than piscidin-1: relative to piscidin-1.

This is an account of results in article PMC5209718, “Piscidin-1-analogs with double L- and D-lysine residues exhibited different conformations in lipopolysaccharide but comparable anti-endotoxin activities” (Scientific Reports, 2017).

Residues, ends and D or L forms follow the SMILES beside them.

As to `CC[C@H](C)[C@H](NC(=O)CNC(=O)[C@H](CCCNC(=N)N)NC(=O)[C@H](Cc1ccccc1)NC(=O)[C@@H](NC(=O)[C@H](Cc1c[nH]cn1)NC(=O)[C@H](Cc1c[nH]cn1)NC(=O)[C@H](Cc1ccccc1)NC(=O)[C@@H](N)Cc1ccccc1)[C@@H](C)CC)C(=O)N[C@H](C(=O)N[C@@H](Cc1c[nH]cn1)C(=O)N[C@H](C(=O)NCC(=O)N[C@@H](CCCCN)C(=O)N[C@H](CCCCN)C(=O)N[C@H](C(=O)N[C@@H](Cc1c[nH]cn1)C(=O)N[C@@H](CCCNC(=N)N)C(=O)N[C@@H](CC(C)C)C(=O)N[C@H](C(=O)N[C@H](CCCCN)C(=O)NCC(N)=O)C(C)C)[C@@H](C)CC)C(C)C)C(C)C` [T15,21dK Piscidin-1] (HELM PEPTIDE1{F.F.H.H.I.F.R.G.I.V.H.V.G.K.[dK].I.H.R.L.V.[dK].G.[am]}$$$$V2.0), the “Therapeutic Index (HC50/MIC)” value is given as 100 and the “fold higher therapeutic index than piscidin-1” value is ~ 20 fold.

Turning to “H-FFHHIFRGIVHVGKKIHRLVKG-NH2 [T15,21K Piscidin-1]”, the “Therapeutic Index (HC50/MIC)” value came out at 100 and the “fold higher therapeutic index than piscidin-1” value is on record as ~ 20 fold.
